Laboratory results: PubChem BioAssay AID652243 (Drosophila RNAi Screening Center, 2013)

Assay: 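Fly regulators of androgen-dependent reporter output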 (primary screen)
Cell system: Drosophila S2R+ cells
Reagents: long dsRNA against Drosophila genes
Duration: 72 h (48 h, then 24 h hormone)
Challenge: synthetic androgen R1881 at 10 nM for 24 h
Detection: 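Firefly light from an androgen-responsive reporter and Renilla control light per well, raw and unnormalised, for each of two replicates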
Scale: firefly reporter light: higher = more light from androgen-responsive reporter; Renilla control light: higher = more constitutive control signal (cell number, transfection)
Active means: 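Hit when the log firefly-to-Renilla ratio dropped or increased by a fixed fold versus the mean of GFP or LacZ controls across duplicate plates; lowering cut given as 1.5 and as 3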
Meaning of the calls: active = hit: reporter lowered or raised; inactive = no hit
The deposit covers about 24,000 reagents; shown is a random part of those that have a named target and a result. Of all reagents, 246 (1%) are marked active. 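Plates not normalised; calls are printed but the firefly/Renilla ratio behind them is not deposited; fold cut for lowering reported inconsistently.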 The raw values are shown without normalisation. Names joined by + are all predicted targets of the reagent. Not stated in the record: the amount of reagent.

| target gene | dsRNA | firefly reporter light, replicate 1 | firefly reporter light, replicate 2 | Renilla control light, replicate 1 | Renilla control light, replicate 2 | activity call |
| --- | --- | --- | --- | --- | --- | --- |
| CG10747 (GeneID 35295) | DRSC02104 | 1.35e5 | 1.09e5 | 1.33e6 | 1.27e6 | inactive |
| eater (GeneID 43262) | DRSC15969 | 5.46e5 | 6.08e5 | 2.51e6 | 2.23e6 | inactive |
| eater (GeneID 43262) | DRSC22254 | 9.09e5 | 1.19e6 | 1.19e6 | 1.23e6 | inactive |
| eater (GeneID 43262) | DRSC29945 | 6.58e5 | 5.29e5 | 9.82e5 | 1.06e6 | inactive |
| KFase (GeneID 33907) | DRSC03258 | 1.53e5 | 86577 | 1.36e6 | 1.05e6 | inactive |
| KFase (GeneID 33907) | DRSC30035 | 5.12e5 | 3.02e5 | 1.63e6 | 1.29e6 | inactive |
| Argl + CG9515 | DRSC03243 | 8.31e5 | 1.20e6 | 1.87e6 | 3.02e6 | inactive |
| Argl + CG9515 | DRSC03245 | 3.38e5 | 2.00e5 | 2.55e6 | 2.20e6 | inactive |
| CG34134 (GeneID 4379889) | DRSC38696 | 1.17e6 | 1.00e6 | 1.97e6 | 2.59e6 | inactive |
| CG17239 (GeneID 59224) | DRSC00492 | 1.09e5 | 1.67e5 | 7.61e5 | 8.70e5 | inactive |
| CG6125 (GeneID 41882) | DRSC15970 | 86789 | 1.35e5 | 1.85e6 | 2.25e6 | inactive |
| CG40498 (GeneID 3354890) | DRSC38568 | 1.12e6 | 6.94e5 | 2.15e6 | 1.01e6 | inactive |
| CG40498 (GeneID 3354890) | DRSC38860 | 1.29e6 | 9.55e5 | 2.56e6 | 1.75e6 | inactive |
| CG18530 (GeneID 59241) | DRSC15341 | 1.52e5 | 2.59e5 | 2.44e6 | 2.99e6 | inactive |
| CG31183 (GeneID 41927) | DRSC14403 | 1.45e5 | 77561 | 2.45e6 | 2.05e6 | inactive |
| CG31183 (GeneID 41927) | DRSC15554 | 27964 | 31191 | 2.64e5 | 3.72e5 | inactive |
| CG31183 (GeneID 41927) | DRSC39297 | – | – | – | – | inactive |
| CG32225 (GeneID 317926) | DRSC09657 | 1.38e5 | 1.65e5 | 3.46e5 | 3.53e5 | inactive |
| CG32225 (GeneID 317926) | DRSC26362 | 2.61e5 | 3.92e5 | 3.04e5 | 6.59e5 | inactive |
| Hinfp (GeneID 47718) | DRSC18484 | 2.38e5 | 2.31e5 | 2.79e6 | 2.19e6 | inactive |
| Hinfp (GeneID 47718) | DRSC24069 | 7.07e5 | 6.01e5 | 8.07e5 | 7.67e5 | inactive |
| CR11386 + CR33222 | DRSC17781 | 2.70e5 | 3.13e5 | 2.51e6 | 2.31e6 | inactive |
| CR11386 + CR33222 | DRSC23991 | 6.52e5 | 5.88e5 | 7.93e5 | 7.19e5 | inactive |
| Hey (GeneID 35764) | DRSC23030 | 4.91e5 | 6.72e5 | 1.31e6 | 1.55e6 | inactive |
| how (GeneID 42596) | DRSC25008 | 2.83e5 | 2.67e5 | 4.70e5 | 4.38e5 | inactive |
| ppk3 (GeneID 246504) | DRSC04275 | 3.49e5 | 3.92e5 | 1.80e6 | 2.35e6 | inactive |
| ppk3 (GeneID 246504) | DRSC25960 | 3.27e5 | 3.40e5 | 8.16e5 | 6.65e5 | inactive |
| CG3862 (GeneID 33261) | DRSC00631 | 6.78e5 | 6.30e5 | 2.74e6 | 2.37e6 | inactive |
| CG3862 (GeneID 33261) | DRSC28505 | 3.85e5 | 6.20e5 | 5.65e5 | 8.67e5 | inactive |
| CG14985 (GeneID 38470) | DRSC08443 | 1.89e5 | 2.06e5 | 2.37e6 | 3.01e6 | inactive |
| ox (GeneID 45401) | DRSC07520 | 3.02e5 | 2.09e5 | 1.92e6 | 1.84e6 | inactive |
| SPoCk (GeneID 40495) | DRSC11675 | 1.87e5 | 1.72e5 | 1.78e6 | 1.52e6 | inactive |
| SPoCk (GeneID 40495) | DRSC11706 | 1.74e5 | 1.27e5 | 1.92e6 | 2.07e6 | inactive |
| SPoCk (GeneID 40495) | DRSC11844 | 2.43e5 | 1.95e5 | 1.75e6 | 2.00e6 | inactive |
| SPoCk (GeneID 40495) | DRSC11845 | 2.55e5 | 1.88e5 | 1.78e6 | 2.35e6 | inactive |
| SPoCk (GeneID 40495) | DRSC24007 | 7.64e5 | 6.49e5 | 5.30e5 | 5.03e5 | inactive |
| Coq3 (GeneID 35383) | DRSC03168 | 1.43e6 | 1.29e6 | 3.00e6 | 2.97e6 | inactive |
| a6 (GeneID 31127) | DRSC18733 | 54823 | 39851 | 8.27e5 | 5.22e5 | inactive |
| yip2 (GeneID 34313) | DRSC03640 | 2.05e5 | 2.16e5 | 9.37e5 | 1.38e6 | inactive |
| roh (GeneID 246602) | DRSC04003 | 92222 | 1.30e5 | 1.47e5 | 2.13e5 | inactive |
| ldd (GeneID 318066) | DRSC20558 | 70676 | 1.43e5 | 4.17e5 | 3.13e5 | inactive |
| ldd (GeneID 318066) | DRSC22696 | 9.27e5 | 7.93e5 | 1.53e6 | 1.91e6 | inactive |
| Stat92E (GeneID 42428) | DRSC16870 | 55251 | 57158 | 7.07e5 | 7.33e5 | inactive |
| Stat92E (GeneID 42428) | DRSC37655 | 4.84e5 | 4.31e5 | 1.49e6 | 1.19e6 | inactive |
| CheB53a (GeneID 3346205) | DRSC06625 | 83392 | 1.02e5 | 1.19e6 | 1.19e6 | inactive |
| CG12241 (GeneID 41834) | DRSC14481 | 66311 | 69204 | 4.90e5 | 5.39e5 | inactive |
| CG12241 (GeneID 41834) | DRSC26642 | 2.75e5 | 2.60e5 | 6.26e5 | 7.10e5 | inactive |
| Gbeta76C (GeneID 40148) | DRSC11174 | 41218 | 30782 | 4.27e5 | 3.52e5 | inactive |
| Tsp42Ea (GeneID 59178) | DRSC04982 | 2.98e5 | 3.53e5 | 1.52e6 | 1.36e6 | inactive |
| Tsp42Ea (GeneID 59178) | DRSC06792 | 2.92e5 | 2.71e5 | 1.85e6 | 1.28e6 | inactive |
| CG4975 + CG4984 | DRSC24817 | 8.21e5 | 7.98e5 | 9.82e5 | 1.09e6 | inactive |
| CG4975 + CG4984 | DRSC39031 | 5.15e5 | 6.07e5 | 7.32e5 | 1.20e6 | inactive |
| CG3556 (GeneID 31380) | DRSC18309 | 1.10e5 | 1.44e5 | 7.39e5 | 1.07e6 | inactive |
| CG3556 (GeneID 31380) | DRSC27365 | 3.21e5 | 2.49e5 | 7.18e5 | 7.79e5 | inactive |
| mst (GeneID 33119) | DRSC20582 | 1.03e5 | 1.65e5 | 4.43e5 | 3.77e5 | inactive |
| CG10669 (GeneID 43069) | DRSC14261 | 1.05e5 | 1.43e5 | 1.04e6 | 1.83e6 | inactive |
| cd (GeneID 42681) | DRSC16157 | 1.97e5 | 1.70e5 | 3.28e6 | 2.18e6 | inactive |
| nom (GeneID 41038) | DRSC16389 | 99854 | 98947 | 2.01e6 | 1.64e6 | inactive |
| nom (GeneID 41038) | DRSC26026 | 3.02e5 | 2.75e5 | 7.66e5 | 6.53e5 | inactive |

Not a retest: 6 of the entries above.
| target gene | dsRNA | firefly reporter light, replicate 1 | firefly reporter light, replicate 2 | Renilla control light, replicate 1 | Renilla control light, replicate 2 | activity call |
| --- | --- | --- | --- | --- | --- | --- |
| Hinfp (GeneID 47718) | DRSC18484 | 2.38e5 | 2.31e5 | 2.79e6 | 2.19e6 | inactive |
| Hinfp (GeneID 47718) | DRSC24069 | 7.07e5 | 6.01e5 | 8.07e5 | 7.67e5 | inactive |
| CR11386 + CR33222 | DRSC17781 | 2.70e5 | 3.13e5 | 2.51e6 | 2.31e6 | inactive |
| CR11386 + CR33222 | DRSC23991 | 6.52e5 | 5.88e5 | 7.93e5 | 7.19e5 | inactive |
| Hey (GeneID 35764) | DRSC23030 | 4.91e5 | 6.72e5 | 1.31e6 | 1.55e6 | inactive |
| how (GeneID 42596) | DRSC25008 | 2.83e5 | 2.67e5 | 4.70e5 | 4.38e5 | inactive |
